{"source": "PubChem BioAssay AID1224830 (NIAID, 2016)", "assay": "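Genes whose knock-down alters the TNF-alpha reporter response to LPS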 (primary screen)", "cell system": "human THP-1 monocytic leukaemia cells, TNF dual-luciferase reporter clone, PMA-differentiated to macrophage-like cells", "reagent": "siRNA pool against human genes, 50 nM", "duration": "LPS for 4 h, given about 3 days after siRNA transfection", "conditions": "bacterial LPS (TLR4 ligand), 10 ng/ml", "read-out": "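Ratio of firefly to renilla light, scaled to the plate median and expressed as a robust z-score per replicate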", "reading the numbers": "TNF reporter robust z-score: higher = stronger TNF reporter response to LPS", "active means": "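Each well counts as active if its z-score is over 2.8 or under -1.5; controls are left without a call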", "note": "In all, the deposit lists about 18,000 reagents; below is a random part of them. Over the whole deposit, about 2,900 (16%) got an active call. 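Calls are made per well; low scores hint the gene aids the LPS response, high scores that it dampens it.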 Repeated entries: four replicate wells of each siRNA pool."}
{"target":"PAWR","PubChem SID":"SID315450426","TNF reporter robust z-score":-1.05,"Outcome":"inactive"}
{"target":"PAWR","PubChem SID":"SID315450426","TNF reporter robust z-score":-0.69,"Outcome":"inactive"}
{"target":"PAWR","PubChem SID":"SID315450426","TNF reporter robust z-score":-0.85,"Outcome":"inactive"}
{"target":"PAWR","PubChem SID":"SID315450426","TNF reporter robust z-score":-0.74,"Outcome":"inactive"}
{"target":"GCG","PubChem SID":"SID315448858","TNF reporter robust z-score":0.61,"Outcome":"inactive"}
{"target":"GCG","PubChem SID":"SID315448858","TNF reporter robust z-score":4.04,"Outcome":"active"}
{"target":"GCG","PubChem SID":"SID315448858","TNF reporter robust z-score":-0.96,"Outcome":"inactive"}
{"target":"GCG","PubChem SID":"SID315448858","TNF reporter robust z-score":0.32,"Outcome":"inactive"}
{"target":"GCNT1","PubChem SID":"SID315448867","TNF reporter robust z-score":0.32,"Outcome":"inactive"}
{"target":"GCNT1","PubChem SID":"SID315448867","TNF reporter robust z-score":1.54,"Outcome":"inactive"}
{"target":"GCNT1","PubChem SID":"SID315448867","TNF reporter robust z-score":1.43,"Outcome":"inactive"}
{"target":"GCNT1","PubChem SID":"SID315448867","TNF reporter robust z-score":1.06,"Outcome":"inactive"}
{"target":"NQO2","PubChem SID":"SID315450266","TNF reporter robust z-score":-0.42,"Outcome":"inactive"}
{"target":"NQO2","PubChem SID":"SID315450266","TNF reporter robust z-score":0.11,"Outcome":"inactive"}
{"target":"NQO2","PubChem SID":"SID315450266","TNF reporter robust z-score":0.3,"Outcome":"inactive"}
{"target":"NQO2","PubChem SID":"SID315450266","TNF reporter robust z-score":-1.7,"Outcome":"active"}
{"target":"MGAT5B","PubChem SID":"SID315462286","TNF reporter robust z-score":0.78,"Outcome":"inactive"}
{"target":"MGAT5B","PubChem SID":"SID315462286","TNF reporter robust z-score":0.79,"Outcome":"inactive"}
{"target":"MGAT5B","PubChem SID":"SID315462286","TNF reporter robust z-score":0.83,"Outcome":"inactive"}
{"target":"MGAT5B","PubChem SID":"SID315462286","TNF reporter robust z-score":0.07,"Outcome":"inactive"}

A portion of the results above, as a working copy:
{"target":"GCNT1","PubChem SID":"SID315448867","TNF reporter robust z-score":1.54,"Outcome":"inactive"}
{"target":"GCNT1","PubChem SID":"SID315448867","TNF reporter robust z-score":1.43,"Outcome":"inactive"}
{"target":"GCNT1","PubChem SID":"SID315448867","TNF reporter robust z-score":1.06,"Outcome":"inactive"}
